The text below walks through data of US20200048693.

Protein sequences, listed by entry. Tags and fused reporters are not part of them. Residues count along the entry.
UniProt P00639, 23-282: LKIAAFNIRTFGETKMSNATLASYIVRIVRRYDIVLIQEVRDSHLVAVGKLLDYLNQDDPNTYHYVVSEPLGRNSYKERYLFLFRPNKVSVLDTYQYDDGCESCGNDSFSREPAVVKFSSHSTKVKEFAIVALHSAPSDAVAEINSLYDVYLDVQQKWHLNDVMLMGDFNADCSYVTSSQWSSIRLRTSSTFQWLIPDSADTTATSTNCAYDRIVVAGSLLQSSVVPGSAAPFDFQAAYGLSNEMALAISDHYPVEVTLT

The test system of data set [1] is dsDNase (shrimp double strand-specific DNase). Put plainly: activity assay. The conditions noted are these: FRET nuclease assay, 1x First-Strand buffer, 37 C; cleaved; purified recombinant protein; protein details: ArcticZymes; label: 5'-FAM and 5'-HEX, 3'-BHQ1.
Another data set concerns the target DNase I (UniProt P00639). The experiment in a line: enzyme reaction in vitro. The conditions noted are these: First-Strand buffer, 37 C, purified native protein, protein details: Amplification Grade, Life Technologies.
Data set [2] concerns the target T1, T4 gene 32 protein (Enterobacteria phage T4) (UniProt P03695).
T1 sequence (looked up, limits assumed): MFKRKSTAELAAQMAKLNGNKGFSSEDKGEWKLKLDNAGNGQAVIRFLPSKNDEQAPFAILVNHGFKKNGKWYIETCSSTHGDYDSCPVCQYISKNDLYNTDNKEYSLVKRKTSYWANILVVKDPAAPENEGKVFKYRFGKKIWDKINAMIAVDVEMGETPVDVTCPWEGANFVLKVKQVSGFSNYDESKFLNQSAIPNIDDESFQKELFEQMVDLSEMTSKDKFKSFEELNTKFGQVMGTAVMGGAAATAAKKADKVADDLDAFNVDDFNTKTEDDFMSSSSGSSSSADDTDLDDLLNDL
Put plainly: inhibition of the protein. The conditions noted are these: purified recombinant protein, protein details: Roche Applied Science.

The test system of data set [3] is dsDNase (shrimp double strand-specific DNase). Put plainly: enzyme reaction in vitro. The following applies: almost no activity, First-Strand buffer, 37 C, purified recombinant protein, protein details: ArcticZymes, label: HEX, BHQ1.
The mark [4] stands for this setting: label: 5'-FAM and 5'-HEX, 3'-BHQ1.

For some assays here: A negative result means that nothing was seen under these conditions. For some assays here: Protein sequences can lack the tags named with them. For some assays here: A weaker result is weaker than the reference pair of the same experiment. For some assays here: The exact form of at least one protein or probe is not confirmed. For some assays here: Whether high values mean tight binding is not given here for every scale.

On to “CGCCATCGGAGGTTC (double strand) [double-stranded DNA dual probe]”, for which the “activity on this sequence” value (in data set [1]; in the data set with DNase I (setting [4])) was “active” in each case. For the same sequence, the binding result in data set [2] (setting [4]) is given as “no binding”.
As for “CGCCATCGGAGGTTC / GAACCUCCGAUGGCG [RNA-DNA hybrid dual probe]”, in the data set with DNase I (selective cleavage of DNA strand in hybrid, label: FAM on DNA, HEX on RNA, BHQ1, DNA:RNA …), the “activity on this sequence” value was “active”. Besides, in data set [2] (DNA in hybrid, PrimeScript buffer, 37 C, indirect, label: FAM on DNA, HEX on RNA, BHQ1, DNA:RNA hybrid), the binding signal (% residual DNase I activity) came to 60.
As for “GAACCTCCGATGGCG [single-stranded DNA HEX probe]”, the “activity on this sequence” value with DNase I (low activity on ssDNA, label: HEX, BHQ1, single-stranded DNA) is “less active”; in data set [3] (single-stranded DNA), “not active”.
“GAACCUCCGAUGGCG [single-stranded RNA HEX probe]”: the “activity on this sequence” value in data set [3] is given as “not active”.
